Laboratory results: the supplement of paper PMC11348887
This is one part of the list. Most entries show no effect beyond the scatter of the controls.

These molecules were tested on hPSC-derived cortical neurons (WA09) (assay: KCl-induced FOS+/EGR-1+ double-positive nuclei fraction z-score (KCl minus unstimulated); higher = stronger activity-induced IEG response). Conditions: 5 µM; treatment: days 7-14 after plating, readout day 21.

SMILES	KCl-induced FOS+/EGR-1+ double-positive nuclei fraction z-score
S=c1[nH]cnc2nc[nH]c12 [Mercaptopurine (6-MP)]	-3.17
COc1ccc(C2CNC(=O)C2)cc1OC1CCCC1 (configuration not stated) [Rolipram]	0.844
Cc1ccc(S(=O)(=O)Cc2nc(-c3ccc(C(=O)NCc4cccnc4)cc3)oc2C)cc1	-0.518
C=C1CC[C@H](O)C/C1=C/C=C1\CCC[C@]2(C)[C@@H]([C@H](C)/C=C/[C@H](C)C(C)C)CC[C@@H]12 [Vitamin D2]	-0.413
NC[C@H]1O[C@H](O[C@H]2[C@H](O)[C@@H](O[C@H]3O[C@H](CO)[C@@H](O)[C@H](N)[C@H]3O)[C@H](N)C[C@@H]2N)[C@H](N)C[C@@H]1O [Tobramycin]	-0.0486
CN(C(=O)c1ccc(F)cc1C(F)(F)F)C1CCN(c2nnc(-c3ccnn3C)c3ccccc23)CC1	-0.242
CC1(C)S[C@@H]2[C@H](NC(=O)[C@H](N)c3ccc(O)cc3)C(=O)N2[C@H]1C(=O)O [Amoxicillin Sodium]	0.949
